According to US5055594A, “Fluorogenic trypotophanase substrates” (Becton, Dickinson and Company, priority 1990, dated 1991):

Test system: tryptophanase
Experiment: Reaction of serine-AMC-carbamate with tryptophanase (fluorescence increase)
Assay type: biochemical
Protocol: To a 1.19×10^-6 M solution of serine-AMC-carbamate dissolved in 100 mM potassium phosphate buffer, pH 8.2 was added 100 μL of a 5.0 mq/mL solution of tryptophanase. Fluorescence increase was measured at 440 nm, with excitation at 365 nm. Starting fluorescence of the serine-AMC-carbamate solution was 26 relative units. After addition of the enzyme, fluorescence at 440 nM increased at a rate of 97 units/minute. […] Fluorescence increase in the absence of enzyme was negligible.

## Cc1cc(=O)oc2cc(NC(=O)OC[C@H](N)C(=O)O)ccc12 [serine-AMC-carbamate]
1.19×10^-6 M in 100 mM potassium phosphate buffer, pH 8.2, before enzyme, excitation 365 nm, emission 440 nm
  Starting fluorescence of the serine-AMC-carbamate solution: 26 relative units
1.19×10^-6 M substrate, phosphate buffer pH 8.2, no enzyme
  Fluorescence increase in the absence of enzyme: negligible
